# Reference: the supplement of paper PMC10032668
# Some of the results follow. The list holds hits alone, and they repeat only in part.
# Legend:
# Assay in all cases: PRISMA enrichment of interactor (LFQ) in peptide spot vs all other peptide spots (log2 fold change); higher = stronger / more specific binding of the interactor to the peptide
# [1] = molecular target: AHCTF1, Q8WYP5
# Protocol: (§1)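 PRISMA: 15-aa overlapping tiles (offset 8 aa) of 60 microproteins, plus SOS1/GLUT1 control peptides, were spot-synthesized on cellulose membranes in triplicate. Membranes were incubated with benzonase-treated HEK293T lysate, and bound proteins were identified by LC-MS/MS with LFQ. Enrichment is the log2 fold change of each protein in one spot versus all other spots. Only interactors passing the significance cutoff are listed.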
# [2] = molecular target: ANP32B, Q92688
# Protocol: as §1
# [3] = molecular target: C1QBP, Q07021
# Protocol: as §1
# [4] = molecular target: CDCA7L, Q96GN5
# Protocol: as §1
# [5] = molecular target: FABP5, Q01469
# Protocol: as §1
# [6] = molecular target: GART, P22102
# Protocol: as §1
# [7] = molecular target: GPS1, Q13098
# Protocol: as §1
# [8] = molecular target: NUDC, Q9Y266
# Protocol: as §1
# [9] = molecular target: PCYT1A, P49585
# Protocol: as §1
# [10] = molecular target: RBM15, Q96T37
# Protocol: as §1
# [11] = molecular target: RBM22, Q9NW64
# Protocol: as §1
# [12] = molecular target: RNF213, Q63HN8
# Protocol: as §1
# [13] = molecular target: RPLP1, P05386
# Protocol: as §1
# [14] = molecular target: SET, Q01105
# Protocol: as §1
# [15] = molecular target: SLC35B2, Q8TB61
# Protocol: as §1
# [16] = molecular target: AGK, Q53H12
# Protocol: as §1
# [17] = molecular target: BZW1, Q7L1Q6
# Protocol: as §1
# [18] = molecular target: CDC27, P30260
# Protocol: as §1
# [19] = molecular target: CERS2, Q96G23
# Protocol: as §1
# [20] = molecular target: CLNS1A, P54105
# Protocol: as §1
# [21] = molecular target: CTPS1, P17812
# Protocol: as §1
# [22] = molecular target: DCUN1D5, Q9BTE7
# Protocol: as §1
# [23] = molecular target: DDX18, Q9NVP1
# Protocol: as §1
# [24] = molecular target: DDX46, Q7L014
# Protocol: as §1
# [25] = molecular target: DHX57, Q6P158
# Protocol: as §1
# [26] = molecular target: DIMT1, Q9UNQ2
# Protocol: as §1
# [27] = molecular target: EIF6, P56537
# Protocol: as §1
# [28] = molecular target: FHL1, Q13642
# Protocol: as §1
# [29] = molecular target: FLOT1, O75955
# Protocol: as §1
# [30] = molecular target: FLYWCH2, Q96CP2
# Protocol: as §1
# [31] = molecular target: GOLIM4, O00461
# Protocol: as §1
# [32] = molecular target: GSK3B, P49841
# Protocol: as §1
# [33] = molecular target: HIRIP3, Q9BW71
# Protocol: as §1
# [34] = molecular target: HP1BP3, Q5SSJ5
# Protocol: as §1
# [35] = molecular target: IKBIP, Q70UQ0
# Protocol: as §1
# [36] = molecular target: KIF22, Q14807
# Protocol: as §1
# [37] = molecular target: KPNA6, O60684
# Protocol: as §1
# [38] = molecular target: LARP4, Q71RC2
# Protocol: as §1
# [39] = molecular target: LARS, Q9P2J5
# Protocol: as §1
# [40] = molecular target: MCM10, Q7L590
# Protocol: as §1
# [41] = molecular target: MLEC, Q14165
# Protocol: as §1
# [42] = molecular target: MRPL41, Q8IXM3
# Protocol: as §1
# [43] = molecular target: NDUFS7, O75251
# Protocol: as §1
# [44] = molecular target: NUP205, Q92621
# Protocol: as §1
# [45] = molecular target: PFKP, Q01813
# Protocol: as §1
# [46] = molecular target: PFN1, P07737
# Protocol: as §1
# [47] = molecular target: POLDIP3, Q9BY77
# Protocol: as §1
# [48] = molecular target: PRDX3, P30048
# Protocol: as §1
# [49] = molecular target: PRMT1, Q99873
# Protocol: as §1
# [50] = molecular target: PRPS1, P60891
# Protocol: as §1
# [51] = molecular target: PSAT1, Q9Y617
# Protocol: as §1
# [52] = molecular target: PSIP1, O75475
# Protocol: as §1
# [53] = molecular target: PSMA1, P25786
# Protocol: as §1
# [54] = molecular target: PSMC5, P62195
# Protocol: as §1
# [55] = molecular target: PSMD4, P55036
# Protocol: as §1
# [56] = molecular target: PUSL1, Q8N0Z8
# Protocol: as §1
# [57] = molecular target: RAB2A, P61019
# Protocol: as §1
# [58] = molecular target: RPP30, P78346
# Protocol: as §1
# [59] = molecular target: SAAL1, Q96ER3
# Protocol: as §1
# [60] = molecular target: SART1, O43290
# Protocol: as §1
# [61] = molecular target: SDF2L1, Q9HCN8
# Protocol: as §1
# [62] = molecular target: SEC63, Q9UGP8
# Protocol: as §1
# [63] = molecular target: SF3B1, O75533
# Protocol: as §1
# [64] = molecular target: SLU7, O95391
# Protocol: as §1
# [65] = molecular target: SPTLC1, O15269
# Protocol: as §1
# [66] = molecular target: TEX264, Q9Y6I9
# Protocol: as §1
# [67] = molecular target: TRIP12, Q14669
# Protocol: as §1
# [68] = molecular target: UBAP2, Q5T6F2
# Protocol: as §1
# [69] = molecular target: UBTF, P17480
# Protocol: as §1
# [70] = molecular target: ZNF703, Q9H7S9
# Protocol: as §1
binder,measurement,setting,value
AHGTRARRATAASPS [THAP7],PRISMA enrichment of interactor (log2),[1],4.59
same,PRISMA enrichment of interactor (log2),[2],5.9
same,PRISMA enrichment of interactor (log2),[3],6.57
same,PRISMA enrichment of interactor (log2),[4],5.45
same,PRISMA enrichment of interactor (log2),[5],5.6
same,PRISMA enrichment of interactor (log2),[6],4.89
same,PRISMA enrichment of interactor (log2),[7],4.14
same,PRISMA enrichment of interactor (log2),[8],6.23
same,PRISMA enrichment of interactor (log2),[9],4.06
same,PRISMA enrichment of interactor (log2),[10],5.15
same,PRISMA enrichment of interactor (log2),[11],7.88
same,PRISMA enrichment of interactor (log2),[12],11.6
same,PRISMA enrichment of interactor (log2),[13],6.29
same,PRISMA enrichment of interactor (log2),[14],5.43
same,PRISMA enrichment of interactor (log2),[15],4.41
VSLLHQAEVLGDEKH [PSMB8-AS1],PRISMA enrichment of interactor (log2),[16],4.85
same,PRISMA enrichment of interactor (log2),[17],5.33
same,PRISMA enrichment of interactor (log2),[18],9.23
same,PRISMA enrichment of interactor (log2),[19],6.83
same,PRISMA enrichment of interactor (log2),[20],5.68
same,PRISMA enrichment of interactor (log2),[21],6.52
same,PRISMA enrichment of interactor (log2),[22],6.28
same,PRISMA enrichment of interactor (log2),[23],6.45
same,PRISMA enrichment of interactor (log2),[24],8.25
same,PRISMA enrichment of interactor (log2),[25],5.66
same,PRISMA enrichment of interactor (log2),[26],4.88
same,PRISMA enrichment of interactor (log2),[27],4.84
same,PRISMA enrichment of interactor (log2),[28],5.73
same,PRISMA enrichment of interactor (log2),[29],9.7
same,PRISMA enrichment of interactor (log2),[30],4.74
same,PRISMA enrichment of interactor (log2),[6],7.23
same,PRISMA enrichment of interactor (log2),[31],5.42
same,PRISMA enrichment of interactor (log2),[32],6.1
same,PRISMA enrichment of interactor (log2),[33],6.18
same,PRISMA enrichment of interactor (log2),[34],6.5
same,PRISMA enrichment of interactor (log2),[35],5.37
same,PRISMA enrichment of interactor (log2),[36],4.7
same,PRISMA enrichment of interactor (log2),[37],9.85
same,PRISMA enrichment of interactor (log2),[38],4.8
same,PRISMA enrichment of interactor (log2),[39],5.13
same,PRISMA enrichment of interactor (log2),[40],4.31
same,PRISMA enrichment of interactor (log2),[41],7.3
same,PRISMA enrichment of interactor (log2),[42],4.75
same,PRISMA enrichment of interactor (log2),[43],5.39
same,PRISMA enrichment of interactor (log2),[44],5.49
same,PRISMA enrichment of interactor (log2),[45],9.14
same,PRISMA enrichment of interactor (log2),[46],11.5
same,PRISMA enrichment of interactor (log2),[47],5.53
same,PRISMA enrichment of interactor (log2),[48],5.46
same,PRISMA enrichment of interactor (log2),[49],5.18
same,PRISMA enrichment of interactor (log2),[50],6.08
same,PRISMA enrichment of interactor (log2),[51],5.36
same,PRISMA enrichment of interactor (log2),[52],4.27
same,PRISMA enrichment of interactor (log2),[53],7.69
same,PRISMA enrichment of interactor (log2),[54],6.3
same,PRISMA enrichment of interactor (log2),[55],6.13
same,PRISMA enrichment of interactor (log2),[56],4.62
same,PRISMA enrichment of interactor (log2),[57],5.69
same,PRISMA enrichment of interactor (log2),[58],4.54
same,PRISMA enrichment of interactor (log2),[59],4.51
same,PRISMA enrichment of interactor (log2),[60],5.55
same,PRISMA enrichment of interactor (log2),[61],5.62
same,PRISMA enrichment of interactor (log2),[62],6.04
same,PRISMA enrichment of interactor (log2),[63],7.68
same,PRISMA enrichment of interactor (log2),[64],5.79
same,PRISMA enrichment of interactor (log2),[65],4.24
same,PRISMA enrichment of interactor (log2),[66],5.57
same,PRISMA enrichment of interactor (log2),[67],4.9
same,PRISMA enrichment of interactor (log2),[68],5.16
same,PRISMA enrichment of interactor (log2),[69],5.92
same,PRISMA enrichment of interactor (log2),[70],6.59

# Looked up one by one from the list above (3):
binder,measurement,setting,value
VSLLHQAEVLGDEKH [PSMB8-AS1],PRISMA enrichment of interactor (log2),[17],5.33
AHGTRARRATAASPS [THAP7],PRISMA enrichment of interactor (log2),[1],4.59
same,PRISMA enrichment of interactor (log2),[3],6.57
